Laboratory results reported in US20230192835A1.
These are yes or no findings as the source states them, for the method shown. Some results given as binding are weak or reduced against the parent protein; the word gives no strength.

T1: human TL1A (Fitzgerald, Prod. #30R-AT070) (human) (UniProt O95150)
T1 sequence (biotinylated with EZ-Link Sulfo-NHS-LC-Biotin where used as soluble antigen, looked up): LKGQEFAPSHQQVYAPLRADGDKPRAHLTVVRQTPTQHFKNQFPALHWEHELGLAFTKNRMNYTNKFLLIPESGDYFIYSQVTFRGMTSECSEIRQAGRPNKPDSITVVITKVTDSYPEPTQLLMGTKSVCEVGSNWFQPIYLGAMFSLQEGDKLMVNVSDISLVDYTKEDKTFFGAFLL


Assays:
[1] = biological target: T1, human TL1A (Fitzgerald, Prod. #30R-AT070) (human); assay: capture lift screen and Fab ELISA on immobilised antigen
[2] = biological target: T1, human TL1A (Fitzgerald, Prod. #30R-AT070) (human); assay: ELISA, both formats (immobilised TL1A; captured Fab with soluble biotinylated TL1A)

Row | Binder | binding [1] | binding [2]
1 | clone 1-3 Fab (Fab, V domains shown) VH: QVQLVQSGAEVKKPGASVKLSCKASGFDIQDTYMHWVRQAPGQGLEWMGRIDPASGHTKYDPKFQVRVTMTTDTSTSTVYMELSSLRSEDTAVYYCSRSGGLPDVWGQGTTVTVSS VL: EIVLTQSPGTLSLSPGERVTMSCRASSSVSYMYWYQQKPGQAPRPWIYATSNLASGIPDRFSGSGSGTDYTLTISRLEPEDFAVYYCQQWSGNPRTFGGGTKLEIK | binds | –
2 | clone 5-2 Fab (Fab, V domains shown) VH: QVQLVQSGAEVKKPGASVKLSCKASGFDIQDTYMHWVRQAPGQGLEWMGRIDPASGHTKYDPKFQVRVTMTRDTSTSTVYMELSSLRSEDTAVYYCSRSGGLPDVWGQGTTVTVSS VL: EIVLTQSPGTLSLSPGERVTMSCRASSSVSYMYWYQQKPGQAPRPWIYATSNLASGVPDRFSGSGSGTDYTLTISRLEPEDFAVYYCQQWSGNPRTFGGGTKLEIK | binds | –
3 | clone 22 Fab (Fab, V domains shown) VH: QVQLVQSGAEVKKPGASVKLSCKASGFDIQDTYMHWVRQAPGQGLEWMGRIDPASGHTKYDPKFQVRVTMTTDTSTSTVYMELSSLRSEDTAVYYCSRSGGLPDVWGQGTTVTVSS VL: EIVLTQSPGTLSLSPGERVTMSCRASSSVSYMYWYQQKPGQAPRPWIYATSNLASGVPDRFSGSGSGTDFTLTISRLEPEDFAVYYCQQWSGNPRTFGGGTKLEIK | binds | –
4 | clone 1-4 Fab (Fab, V domains shown) VH: QVQLVQSGAEVKKPGASVKLSCKASGFDIQDTYMHWVRQAPGQGLEWMGRIDPASGHTKYDPKFQVRVTMTTDTSTSTVYMELSSLRSEDTAVYYCSRSGGLPDVWGQGTTVTVSS VL: EIVLTQSPGTLSLSPGERVTMSCRASSSVSYMYWYQQKPGQAPRLWIYATSNLASGIPDRFSGSGSGTDYTLTISRLEPEDFAVYYCQQWSGNPRTFGGGTKLEIK | binds | –
5 | clone 2-3 Fab (Fab, V domains shown) VH: QVQLVQSGAEVKKPGASVKLSCKASGFDIQDTYMHWVRQAPGQGLEWMGRIDPASGHTKYDPKFQVRVTMTTDTSTSTVYMELSSLRSEDTAVYYCSRSGGLPDVWGQGTTVTVSS VL: EIVLTQSPGTLSLSPGERATLSCRASSSVSYMYWYQQKPGQAPRPWIYATSNLASGIPDRFSGSGSGTDYTLTISRLEPEDFAVYYCQQWSGNPRTFGGGTKLEIK | binds | –
6 | clone 3-4 Fab (Fab, V domains shown) VH: QVQLVQSGAEVKKPGASVKLSCKASGFDIQDTYMHWVRQAPGQGLEWMGRIDPASGHTKYDPKFQVRVTMTTDTSTSTVYMELSSLRSEDTAVYYCSRSGGLPDVWGQGTTVTVSS VL: EIVLTQSPGTLSLSPGERATLSCRASSSVSYMYWYQQKPGQAPRPWIYATSNLASGVPDRFSGSGSGTDFTLTISRLEPEDFAVYYCQQWSGNPRTFGGGTKLEIK | binds | –
7 | clone 5-1 Fab (Fab, V domains shown) VH: QVQLVQSGAEVKKPGASVKLSCKASGFDIQDTYMHWVRQAPGQGLEWMGRIDPASGHTKYDPKFQVRVTMTRDTSTSTVYMELSSLRSEDTAVYYCSRSGGLPDVWGQGTTVTVSS VL: EIVLTQSPGTLSLSPGERATLSCRASSSVSYMYWYQQKPGQAPRPWIYATSNLASGVPDRFSGSGSGTDYTLTISRLEPEDFAVYYCQQWSGNPRTFGGGTKLEIK | binds | –
8 | clone 7-4 Fab (Fab, V domains shown) VH: QVQLVQSGAEVKKPGASVKLSCKASGFDIQDTYMHWVRQAPGQGLEWMGRIDPASGHTKYDPKFQVRVTMTTDTSTSTVYMELSSLRSEDTAVYYCSRSGGLPDVWGQGTTVTVSS VL: EIVLTQSPGTLSLSPGERATLSCRASSSVSYMYWYQQKPGQAPRLWIYATSNLASGVPDRFSGSGSGTDYTLTISRLEPEDFAVYYCQQWSGNPRTFGGGTKLEIK | binds | –
9 | clone 26 Fab (Fab, V domains shown) VH: QVQLVQSGAEVKKPGASVKVSCKASGFDIQDTYMHWVRQAPGQGLEWMGRIDPASGHTKYDPKFQVRVTMTTDTSTSTVYMELSSLRSEDTAVYYCSRSGGLPDVWGQGTTVTVSS VL: EIVLTQSPGTLSLSPGERATLSCRASSSVSYMYWYQQKPGQAPRPWIYATSNLASGVPDRFSGSGSGTDYTLTISRLEPEDFAVYYCQQWSGNPRTFGGGTKLEIK | binds | –
10 | clone 9-1 Fab (Fab, V domains shown) VH: QVQLVQSGAEVKKPGASVKLSCKASGFDIQDTYMHWVRQAPGQGLEWMGRIDPASGHTKYDPKFQVRVTMTRDTSTSTVYMELSSLRSEDTAVYYCSRSGGLPDVWGQGTTVTVSS VL: EIVLTQSPGTLSLSPGERATLSCRASSSVSYMYWYQQKPGQAPRPWIYATSNLASGVPDRFSGSGSGTDFTLTISRLEPEDFAVYYCQQWSGNPRTFGGGTKLEIK | binds | –
11 | clone 13-2 Fab (Fab, V domains shown) VH: QVQLVQSGAEVKKPGASVKLSCKASGFDIQDTYMHWVRQAPGQGLEWMGRIDPASGHTKYDPKFQVRVTMTRDTSTSTVYMELSSLRSEDTAVYYCARSGGLPDVWGQGTTVTVSS VL: EIVLTQSPGTLSLSPGERATLSCRASSSVSYMYWYQQKPGQAPRPWIYATSNLASGVPDRFSGSGSGTDYTLTISRLEPEDFAVYYCQQWSGNPRTFGGGTKLEIK | binds | –
12 | clone 21 Fab (Fab, V domains shown) VH: QVQLVQSGAEVKKPGASVKLSCKASGFDIQDTYMHWVRQAPGQGLEWMGRIDPASGHTKYDPKFQVRVTMTTDTSTSTVYMELSSLRSEDTAVYYCSRSGGLPDVWGQGTTVTVSS VL: EIVLTQSPGTLSLSPGERATLSCRASSSVSYMYWYQQKPGQAPRLWIYATSNLASGIPDRFSGSGSGTDYTLTISRLEPEDFAVYYCQQWSGNPRTFGGGTKLEIK | binds | –
13 | clone 27 Fab (Fab, V domains shown) VH: QVQLVQSGAEVKKPGASVKVSCKASGFDIQDTYMHWVRQAPGQGLEWMGRIDPASGHTKYDPKFQVRVTMTTDTSTSTVYMELSSLRSEDTAVYYCSRSGGLPDVWGQGTTVTVSS VL: EIVLTQSPGTLSLSPGERATLSCRASSSVSYMYWYQQKPGQAPRPLIYATSNLASGVPDRFSGSGSGTDYTLTISRLEPEDFAVYYCQQWSGNPRTFGGGTKLEIK | binds | –
14 | clone 10-1 Fab (Fab, V domains shown) VH: QVQLVQSGAEVKKPGASVKLSCKASGFDIQDTYMHWVRQAPGQGLEWMGRIDPASGHTKYDPKFQVRVTMTRDTSTSTVYMELSSLRSEDTAVYYCSRSGGLPDVWGQGTTVTVSS VL: EIVLTQSPGTLSLSPGERATLSCRASSSVSYMYWYQQKPGQAPRLLIYATSNLASGVPDRFSGSGSGTDYTLTISRLEPEDFAVYYCQQWSGNPRTFGGGTKLEIK | binds | –
15 | Clone H2-2 Fab (Fab, V domains shown) VH: QVQLVQSGAEVKKPGASVKVSCKASGFDIQDTYMHWVRQAPGQGLEWMGRIDPASGHSKYDPKFQVRATITTDTSASTAYLQLSSLRSEDTAVYYCARSGGLPDFWGQGTTVTVSS VL: EIVLTQSPGTLSLSPGERATLSCRASSSVSYMYWYQQKPGQAPRLLIYATSNLASGIPDRFSGSGSGTDFTLTISRLEPEDFAVYYCQQWSGNPRTFGGGTKLEIK | – | binds
16 | Clone H2-5 Fab (Fab, V domains shown) VH: QVQLVQSGAEVKKPGASVKVSCKASGFDIQDTYMHWVRQAPGQGLEWMGRIDPASGHYKYDPKFQVRATITTDTSASTAYLQLSSLRSEDTAVYYCARSGGLPDFWGQGTTVTVSS VL: EIVLTQSPGTLSLSPGERATLSCRASSSVSYMYWYQQKPGQAPRLLIYATSNLASGIPDRFSGSGSGTDFTLTISRLEPEDFAVYYCQQWSGNPRTFGGGTKLEIK | – | binds
